PMC9751088, “Structure of the Acidobacteria homodimeric reaction center bound with cytochrome c” (Nature Communications, 2022)
These are yes or no findings as the source states them, for the method shown. A result given as binding can be weak or reduced; the word gives no strength.

Target: PscA (Chloracidobacterium thermophilum)
Assay: cryo-EM structure; CabRCL (larger form with PscB and PscZ), native complex purified from C. thermophilum membranes in Triton X-100; 2.61 Å global, cytoplasmic region ~3.5 to ~5.0 Å; 20 mM Tris-HCl pH 7.6, 10 mM ascorbic acid, 0.03% Triton X-100; both purified

- binding: binds weakly
B1: PscB (protein, UniProt G2LDR7 1-179)
chain: MKGKVTMAAEEKAETTNGAPAETPALAPAKAAAKAAAKAPAKAAAKAAPPPIPGPPSRLSRPKTAAPKKKRERQIYTIIEELCIGCGFCTDECPPKVNAILPRDVEAVLDGGETYWIDQTRCISCSLCFVAGTCPTDAVVFTEGGVSRTQYMEDYLHIEMVDEPYWRQRNELSRIGSIL
